Structures can show the parent of a compound that is named as a salt.
System: coagulation factor VIII
Assay: stability of factor VIII clotting activity in stored anti-coagulated blood
Type: biochemical
Details: blood stored at room temperature

For `O=C(O)CC(O)(CC(=O)O)C(=O)O` [citrate, Tri-sodium citrate], the “Factor VIII clotting activity, % of initial activity” value (at 48 hours) was 55% and the “Factor VIII clotting activity, % of initial activity” value (first 5 hours) was 75%.
